These are yes or no findings as the source states them, for the method shown. Binding seen in cells or lysates may run through a third protein. Some results given as binding are weak or reduced against the parent protein; the word gives no strength. For some assays here: Sequences can lack the tags named with a protein.
T1: TRIM33 with C-terminal FLAG, Q9UPN9
T1 chain: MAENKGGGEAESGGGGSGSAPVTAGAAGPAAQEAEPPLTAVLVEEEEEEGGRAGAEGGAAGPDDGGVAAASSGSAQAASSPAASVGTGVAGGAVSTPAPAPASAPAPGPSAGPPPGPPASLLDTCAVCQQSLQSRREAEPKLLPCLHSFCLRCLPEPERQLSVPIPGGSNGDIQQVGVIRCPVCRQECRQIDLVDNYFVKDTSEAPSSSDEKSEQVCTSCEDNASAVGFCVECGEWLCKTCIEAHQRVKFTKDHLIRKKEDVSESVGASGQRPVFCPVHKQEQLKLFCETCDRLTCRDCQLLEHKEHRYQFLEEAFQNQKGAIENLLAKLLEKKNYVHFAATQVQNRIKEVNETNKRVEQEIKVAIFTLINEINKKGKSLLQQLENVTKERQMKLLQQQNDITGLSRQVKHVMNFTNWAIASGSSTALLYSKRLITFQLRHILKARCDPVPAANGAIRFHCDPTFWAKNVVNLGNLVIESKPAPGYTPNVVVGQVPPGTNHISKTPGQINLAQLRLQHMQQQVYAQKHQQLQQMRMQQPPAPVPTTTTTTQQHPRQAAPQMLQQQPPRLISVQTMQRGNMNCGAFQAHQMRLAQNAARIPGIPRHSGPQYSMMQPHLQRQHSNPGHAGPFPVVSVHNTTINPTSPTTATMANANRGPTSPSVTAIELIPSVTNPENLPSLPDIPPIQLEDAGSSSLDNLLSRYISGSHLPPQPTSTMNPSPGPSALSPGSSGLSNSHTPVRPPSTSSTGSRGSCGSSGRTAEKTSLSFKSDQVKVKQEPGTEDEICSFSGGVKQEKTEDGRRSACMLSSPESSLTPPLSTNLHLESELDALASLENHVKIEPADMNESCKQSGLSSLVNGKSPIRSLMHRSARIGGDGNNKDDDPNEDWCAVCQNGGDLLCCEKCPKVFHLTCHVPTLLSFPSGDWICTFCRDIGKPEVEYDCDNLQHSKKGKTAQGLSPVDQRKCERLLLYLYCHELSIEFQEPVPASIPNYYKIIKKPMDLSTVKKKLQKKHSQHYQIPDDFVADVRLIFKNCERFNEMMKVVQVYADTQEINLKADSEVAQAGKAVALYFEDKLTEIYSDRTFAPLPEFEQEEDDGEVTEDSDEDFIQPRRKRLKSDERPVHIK

T2: TRIM33 (endogenous) (human (endogenous in AGS, 293T, NPC43 and Akata cells)), Q9UPN9
T2 chain: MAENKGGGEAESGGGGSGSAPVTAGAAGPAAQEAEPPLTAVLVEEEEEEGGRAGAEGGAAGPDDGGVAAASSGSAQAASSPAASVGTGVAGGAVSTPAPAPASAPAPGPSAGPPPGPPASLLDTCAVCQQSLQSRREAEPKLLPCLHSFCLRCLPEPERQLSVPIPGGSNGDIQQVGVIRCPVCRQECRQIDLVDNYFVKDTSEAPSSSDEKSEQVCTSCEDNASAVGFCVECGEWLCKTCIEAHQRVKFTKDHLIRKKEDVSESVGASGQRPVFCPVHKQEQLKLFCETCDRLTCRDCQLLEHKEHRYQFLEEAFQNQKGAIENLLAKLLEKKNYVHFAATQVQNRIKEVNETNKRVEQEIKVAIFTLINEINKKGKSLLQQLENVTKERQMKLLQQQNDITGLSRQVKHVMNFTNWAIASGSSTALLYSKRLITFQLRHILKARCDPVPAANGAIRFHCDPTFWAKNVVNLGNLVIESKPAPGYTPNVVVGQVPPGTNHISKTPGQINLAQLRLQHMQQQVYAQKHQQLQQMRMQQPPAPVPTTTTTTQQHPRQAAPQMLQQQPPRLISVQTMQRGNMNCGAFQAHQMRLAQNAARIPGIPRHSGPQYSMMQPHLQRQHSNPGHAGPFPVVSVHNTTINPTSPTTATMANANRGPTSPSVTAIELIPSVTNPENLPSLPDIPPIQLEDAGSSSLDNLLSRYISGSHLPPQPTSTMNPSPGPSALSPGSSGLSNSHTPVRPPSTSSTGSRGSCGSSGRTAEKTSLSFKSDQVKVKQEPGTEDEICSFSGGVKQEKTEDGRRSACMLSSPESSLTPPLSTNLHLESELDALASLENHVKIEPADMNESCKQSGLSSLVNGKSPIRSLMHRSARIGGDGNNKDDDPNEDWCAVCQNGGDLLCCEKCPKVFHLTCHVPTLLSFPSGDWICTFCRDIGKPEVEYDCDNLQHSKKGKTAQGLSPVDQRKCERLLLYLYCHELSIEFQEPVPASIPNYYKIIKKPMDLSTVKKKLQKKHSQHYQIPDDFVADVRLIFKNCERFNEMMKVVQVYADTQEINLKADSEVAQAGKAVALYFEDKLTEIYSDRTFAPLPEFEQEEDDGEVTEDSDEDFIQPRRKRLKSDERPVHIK


How the values were obtained:
Conditions in all cases: remark: other sources report otherwise
[1] = target: T1, TRIM33 with C-terminal FLAG, Q9UPN9; assay: co-IP; TRIM33-FLAG expressed in AGS-EBV cells, reactivated with 3 mM sodium butyrate and 20 ng/ml TPA for 24 h; anti-FLAG M2 magnetic beads overnight at 4°C; modified RIPA buffer with 300 mM NaCl; Western blot
[2] = target: T2, TRIM33 (endogenous) (human (endogenous …)); assay: co-IP; IP of endogenous TRIM33 (anti-TRIM33 Cell Signaling #90051, 16 h at 4°C, Protein A magnetic beads, RIPA buffer) from NPC43-Z and Akata-Z cells before or 24 h after dox (EBV reactivation); Western blot for TRIM24, TRIM28, TRIM33
[3] = target: T2, TRIM33 (endogenous) (human (endogenous …)); assay: co-IP; IP of endogenous TRIM33 (antibody on protein A/G agarose, overnight at 4°C, RIPA buffer) from 293T cells transfected with pPL17-BZLF1 or empty vector, 24 h; Western blot for TRIM24, TRIM28, TRIM33

| binding [1] | binding [2] | binding [3] | Binder |
| --- | --- | --- | --- |
| binds | binds |  | TRIM24 (endogenous), O15164 1-1050 (protein) MEVAVEKAVAAAAAASAAASGGPSAAPSGENEAESRQGPDSERGGEAARLNLLDTCAVCHQNIQSRAPKLLPCLHSFCQRCLPAPQRYLMLPAPMLGSAETPPPVPAPGSPVSGSSPFATQVGVIRCPVCSQECAERHIIDNFFVKDTTEVPSSTVEKSNQVCTSCEDNAEANGFCVECVEWLCKTCIRAHQRVKFTKDHTVRQKEEVSPEAVGVTSQRPVFCPFHKKEQLKLYCETCDKLTCRDCQLLEHKEHRYQFIEEAFQNQKVIIDTLITKLMEKTKYIKFTGNQIQNRIIEVNQNQKQVEQDIKVAIFTLMVEINKKGKALLHQLESLAKDHRMKLMQQQQEVAGLSKQLEHVMHFSKWAVSSGSSTALLYSKRLITYRLRHLLRARCDASPVTNNTIQFHCDPSFWAQNIINLGSLVIEDKESQPQMPKQNPVVEQNSQPPSGLSSNQLSKFPTQISLAQLRLQHMQQQVMAQRQQVQRRPAPVGLPNPRMQGPIQQPSISHQQPPPRLINFQNHSPKPNGPVLPPHPQQLRYPPNQNIPRQAIKPNPLQMAFLAQQAIKQWQISSGQGTPSTTNSTSSTPSSPTITSAAGYDGKAFGSPMIDLSSPVGGSYNLPSLPDIDCSSTIMLDNIVRKDTNIDHGQPRPPSNRTVQSPNSSVPSPGLAGPVTMTSVHPPIRSPSASSVGSRGSSGSSSKPAGADSTHKVPVVMLEPIRIKQENSGPPENYDFPVVIVKQESDEESRPQNANYPRSILTSLLLNSSQSSTSEETVLRSDAPDSTGDQPGLHQDNSSNGKSEWLDPSQKSPLHVGETRKEDDPNEDWCAVCQNGGELLCCEKCPKVFHLSCHVPTLTNFPSGEWICTFCRDLSKPEVEYDCDAPSHNSEKKKTEGLVKLTPIDKRKCERLLLFLYCHEMSLAFQDPVPLTVPDYYKIIKNPMDLSTIKKRLQEDYSMYSKPEDFVADFRLIFQNCAEFNEPDSEVANAGIKLENYFEELLKNLYPEKRFPKPEFRNESEDNKFSDDSDDDFVQPRKKRLKSIEERQLLK |
| binds | binds | binds | TRIM28 (endogenous), Q13263 1-835 (protein) MAASAAAASAAAASAASGSPGPGEGSAGGEKRSTAPSAAASASASAAASSPAGGGAEALELLEHCGVCRERLRPEREPRLLPCLHSACSACLGPAAPAAANSSGDGGAAGDGTVVDCPVCKQQCFSKDIVENYFMRDSGSKAATDAQDANQCCTSCEDNAPATSYCVECSEPLCETCVEAHQRVKYTKDHTVRSTGPAKSRDGERTVYCNVHKHEPLVLFCESCDTLTCRDCQLNAHKDHQYQFLEDAVRNQRKLLASLVKRLGDKHATLQKSTKEVRSSIRQVSDVQKRVQVDVKMAILQIMKELNKRGRVLVNDAQKVTEGQQERLERQHWTMTKIQKHQEHILRFASWALESDNNTALLLSKKLIYFQLHRALKMIVDPVEPHGEMKFQWDLNAWTKSAEAFGKIVAERPGTNSTGPAPMAPPRAPGPLSKQGSGSSQPMEVQEGYGFGSGDDPYSSAEPHVSGVKRSRSGEGEVSGLMRKVPRVSLERLDLDLTADSQPPVFKVFPGSTTEDYNLIVIERGAAAAATGQPGTAPAGTPGAPPLAGMAIVKEEETEAAIGAPPTATEGPETKPVLMALAEGPGAEGPRLASPSGSTSSGLEVVAPEGTSAPGGGPGTLDDSATICRVCQKPGDLVMCNQCEFCFHLDCHLPALQDVPGEEWSCSLCHVLPDLKEEDGSLSLDGADSTGVVAKLSPANQRKCERVLLALFCHEPCRPLHQLATDSTFSLDQPGGTLDLTLIRARLQEKLSPPYSSPQEFAQDVGRMFKQFNKLTEDKADVQSIIGLQRFFETRMNEAFGDTKFSAVLVEPPPMSLPGAGLSSQELSGGPGDGP |
